Data from patent US11672868B2, “Bicyclic peptide ligands specific for MT1-MMP” (priority 2014, dated 2023).
For some assays here: Not every detail of the peptide structures is certain; ends, links or a residue may be inferred. Some entries share one result that the patent states for a list of compounds. Numbered stars: 1 amine (or outer) side, 2 acyl side, 3 side chain; on linkers, the order of the positions; unused ones are H or OH. Bridge positions count the residues as written; N and C are the ends. Square brackets hold non-standard residues; d marks the D form. Peptide text beside a SMILES is read from it. I, II: the chains in the order shown. * marks the point of attachment. X1 = COc1cc2cc(c1Cl)N(C)C(=O)C[C@H](OC(=O)[C@H](C)N(C)C(=O)CCC(C)(C)SSCCCC(=O)*)[C@]1(C)O[C@H]1[C@H](C)[C@@H]1C[C@@](O)(NC(=O)O1)[C@H](OC)/C=C/C=C(\C)C2; Dolaproine = CO[C@@H]([C@@H]1CCCN1)[C@@H](C)C(=O)O; Dil = CC[C@H](C)[C@H](NC)[C@@H](CC(=O)O)OC; 1Nal = N[C@@H](Cc1cccc2ccccc12)C(=O)O; TBMB = c1c(C[*:1])cc(C[*:3])cc1C[*:2]; PABC = O=C(OCc1ccc(N[*:1])cc1)[*:2]; Glutaryl = O=C(CCCC(=O)[*:2])[*:1]; X4 = C[C@@H](N*)[C@@H](O)c1ccccc1; Cit = NC(=O)NCCC[C@H](N)C(=O)O; Tle = CC(C)(C)[C@H](N)C(=O)O; NMeV = CN[C@H](C(=O)O)C(C)C; βAla = NCCC(=O)O; Sar = CNCC(=O)O

What was measured:
[1] = system: HT-1080 xenograft tumours; experiment: Efficacy in HT-1080 xenograft mice; type: in vivo, mouse; conditions: HT1080 xenograft
Description: Balb/c nude mice bearing subcutaneous HT-1080 xenograft tumours were treated with BDCs or vehicle (PBS). BDCs were dosed 3 times weekly for 2 weeks, dosing initiated when tumours measured approx. 150-200 mm^3. Mice were monitored, and measurements of tumour volume and body weight recorded 3 times a week.

[2] = system: human lung squamous cell carcinoma line EBC-1; experiment: Efficacy in EBC-1 xenograft mice; type: in vivo, mouse
Description: In vivo efficacy of BT17BDC-17, BT17BDC-18, BT17BDC-19 and BT17BDC-20 All BDCs containing the stabilised bicycle core sequence were tested for their efficacies in in vivo mouse xenograft models, using the human lung squamous cell carcinoma line EBC-1.
The area under the curve (AUC) of tumour volume over time and BDC was taken and plotted against the corresponding dose group (FIG. 13).

Structure (SMILES)	day by which tumours were completely cleared, as judged by palpation [1]	reduction in tumour volume compared to vehicle control ([1]; after 9 days post injection)	days in which tumours were cleared [2]
CC[C@H](C)[C@@H]([C@@H](CC(=O)N1CCC[C@H]1[C@H](OC)[C@@H](C)C(=O)N[C@H](C)[C@@H](O)c1ccccc1)OC)N(C)C(=O)[C@@H](NC(=O)[C@H](C(C)C)N(C)C(=O)OCc1ccc(NC(=O)[C@H](CCCNC(N)=O)NC(=O)[C@@H](NC(=O)CCCC(=O)NCC(=O)N(C)CC(=O)N(C)CC(=O)N(C)CC(=O)N(C)CC(=O)N(C)CC(=O)N(C)CC(=O)N(C)CC(=O)N(C)CC(=O)N(C)CC(=O)N(C)CC(=O)N[C@@H](C)C(=O)N[C@H]2CSCc3cc4cc(c3)CSC[C@H](NC(=O)CNC(=O)[C@H](Cc3ccccc3)NC(=O)[C@H](CCC(=O)O)NC(=O)[C@H](CC(N)=O)NC(=O)[C@H](Cc3ccc(O)cc3)NC2=O)C(=O)N[C@@H](CCC(=O)O)C(=O)N[C@@H](CC(=O)O)C(=O)N[C@@H](Cc2ccccc2)C(=O)N[C@@H](Cc2ccc(O)cc2)C(=O)N[C@@H](CC(=O)O)C(=O)N[C@@H]([C@@H](C)CC)C(=O)N[C@H](C(N)=O)CSC4)C(C)C)cc1)C(C)C [BT17BDC-1] (I: G[Sar][Sar][Sar][Sar][Sar][Sar][Sar][Sar][Sar][Sar]ACYNEFGCEDFYDIC-NH2 / II: V[Cit][PABC][NMeV]V[Dil][Dolaproine]-X4; linker I:13-I:19-I:26 via TBMB; linker I:N-II:N via Glutaryl)	≤ 14 days	significant reduction in tumour volume	–
COc1cc2cc(c1Cl)N(C)C(=O)C[C@@H](OC(=O)[C@@H](C)N(C)C(=O)CCSSCCCC(C)=O)[C@@]1(C)CO[C@@H]1[C@@H](C)[C@H]1C[C@](O)(NC(=O)O1)[C@@H](OC)/C=C/C=C(\C)C2 [BT17BDC-17]	–	–	≤ 9 days
COc1cc2cc(c1Cl)N(C)C(=O)C[C@@H](OC(=O)[C@@H](C)N(C)C(=O)CCSSC(C)CCC(C)=O)[C@@]1(C)CO[C@@H]1[C@@H](C)[C@H]1C[C@](O)(NC(=O)O1)[C@@H](OC)/C=C/C=C(\C)C2 (some centres unmarked) [BT17BDC-18]	–	–	≤ 9 days
COc1cc2cc(c1Cl)N(C)C(=O)C[C@H](OC(=O)[C@H](C)N(C)C(=O)CCC(C)(C)SSCCCC(=O)NCCC(=O)N(C)CC(=O)N(C)CC(=O)N(C)CC(=O)N(C)CC(=O)N(C)CC(=O)N(C)CC(=O)N(C)CC(=O)N(C)CC(=O)N(C)CC(=O)N(C)CC(=O)N[C@@H](C)C(=O)N[C@H]1CSCc3cc4cc(c3)CSC[C@H](NC(=O)[C@@H](C)NC(=O)[C@H](Cc3cccc5ccccc35)NC(=O)[C@H](CCC(=O)O)NC(=O)[C@H](CC(N)=O)NC(=O)[C@@H](C)NC1=O)C(=O)N[C@@H](CCC(=O)O)C(=O)N[C@@H](CC(=O)O)C(=O)N[C@@H](Cc1ccccc1)C(=O)N[C@@H](Cc1ccc(O)cc1)C(=O)N[C@@H](CC(=O)O)C(=O)N[C@@H](C(C)(C)C)C(=O)N[C@H](C(N)=O)CSC4)[C@]1(C)O[C@H]1[C@H](C)[C@@H]1C[C@@](O)(NC(=O)O1)[C@H](OC)/C=C/C=C(\C)C2 [BT17BDC-19] ({X1-βAla}-[Sar][Sar][Sar][Sar][Sar][Sar][Sar][Sar][Sar][Sar]AC[dA]NE[1Nal][dA]CEDFYD[Tle]C-NH2; linker 12-18-25 via TBMB)	–	–	≤ 9 days
